Measurements reported in the M2OR odorant receptor database.
Residue numbers refer to the chain shown, from its start. The list shows a part of the results, in another mix than the full data. The calls were merged from several studies; some rest on single wells. The list shows a part of the results.

Chains of the proteins cited; added tags and fusions are not shown. A line that says so, or that is headed by a name, gives the form on record, which may keep a tag or linker.
O4F17, as listed by the source: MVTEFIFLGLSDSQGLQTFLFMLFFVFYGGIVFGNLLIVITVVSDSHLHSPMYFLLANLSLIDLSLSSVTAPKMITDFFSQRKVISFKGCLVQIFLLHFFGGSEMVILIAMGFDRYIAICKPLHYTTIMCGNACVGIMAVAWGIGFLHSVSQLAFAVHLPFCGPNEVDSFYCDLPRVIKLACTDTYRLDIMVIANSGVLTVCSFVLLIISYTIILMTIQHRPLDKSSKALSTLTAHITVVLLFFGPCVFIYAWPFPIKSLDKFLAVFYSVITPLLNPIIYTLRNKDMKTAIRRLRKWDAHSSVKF
O4C46, as listed by the source: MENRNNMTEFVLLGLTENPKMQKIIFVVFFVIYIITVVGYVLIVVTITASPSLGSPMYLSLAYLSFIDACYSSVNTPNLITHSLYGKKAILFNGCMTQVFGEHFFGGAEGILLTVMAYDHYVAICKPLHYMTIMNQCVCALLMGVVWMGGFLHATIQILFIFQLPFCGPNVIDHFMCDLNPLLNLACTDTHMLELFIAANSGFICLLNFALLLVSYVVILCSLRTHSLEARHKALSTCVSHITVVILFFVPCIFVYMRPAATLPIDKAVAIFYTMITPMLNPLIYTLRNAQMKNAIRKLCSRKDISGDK
O4A15, as listed by the source: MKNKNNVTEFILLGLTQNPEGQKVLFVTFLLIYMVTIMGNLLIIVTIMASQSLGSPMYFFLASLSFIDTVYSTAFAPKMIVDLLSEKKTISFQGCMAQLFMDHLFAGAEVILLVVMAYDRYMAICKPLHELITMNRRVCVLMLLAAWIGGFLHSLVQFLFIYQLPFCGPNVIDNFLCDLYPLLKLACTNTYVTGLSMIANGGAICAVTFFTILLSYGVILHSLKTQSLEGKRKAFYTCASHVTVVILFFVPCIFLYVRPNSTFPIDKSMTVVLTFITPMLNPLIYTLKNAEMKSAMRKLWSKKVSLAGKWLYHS

Experiments:
Conditions in all cases: stereoisomer not certain
O2T11 = test system: T1, O2T11
T1 sequence (whole entry): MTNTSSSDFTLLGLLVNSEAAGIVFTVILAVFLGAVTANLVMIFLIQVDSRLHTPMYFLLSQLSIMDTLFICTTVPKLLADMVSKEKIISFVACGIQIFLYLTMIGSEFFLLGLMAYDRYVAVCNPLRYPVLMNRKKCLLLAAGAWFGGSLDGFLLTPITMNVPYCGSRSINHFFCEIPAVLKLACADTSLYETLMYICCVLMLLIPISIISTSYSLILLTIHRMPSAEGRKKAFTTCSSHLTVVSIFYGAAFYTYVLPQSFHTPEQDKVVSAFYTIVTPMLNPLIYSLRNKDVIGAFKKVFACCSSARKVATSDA
In short: (§1)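 Assay methods differ from source to source, frequently being transient luciferase assays in mammalian cell lines. For each receptor–molecule pair, the label responsive (active) applies when the original authors judged the measured signal statistically different from baseline, and non-responsive (inactive) applies otherwise.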

O2T29 [1] = test system: T2, O2T29
T2 sequence (whole entry): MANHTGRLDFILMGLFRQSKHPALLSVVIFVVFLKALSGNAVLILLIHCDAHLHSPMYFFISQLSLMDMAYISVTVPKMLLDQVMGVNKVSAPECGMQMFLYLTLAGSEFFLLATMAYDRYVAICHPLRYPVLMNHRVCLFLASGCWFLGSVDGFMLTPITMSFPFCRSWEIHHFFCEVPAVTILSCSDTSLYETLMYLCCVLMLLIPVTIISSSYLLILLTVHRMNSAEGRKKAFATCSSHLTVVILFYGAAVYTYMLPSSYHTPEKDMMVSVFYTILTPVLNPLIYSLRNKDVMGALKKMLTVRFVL
In short: as §1

O2T29 [2] = test system: T3, O2T29; remark: listed apart in the source
T3 sequence (whole entry): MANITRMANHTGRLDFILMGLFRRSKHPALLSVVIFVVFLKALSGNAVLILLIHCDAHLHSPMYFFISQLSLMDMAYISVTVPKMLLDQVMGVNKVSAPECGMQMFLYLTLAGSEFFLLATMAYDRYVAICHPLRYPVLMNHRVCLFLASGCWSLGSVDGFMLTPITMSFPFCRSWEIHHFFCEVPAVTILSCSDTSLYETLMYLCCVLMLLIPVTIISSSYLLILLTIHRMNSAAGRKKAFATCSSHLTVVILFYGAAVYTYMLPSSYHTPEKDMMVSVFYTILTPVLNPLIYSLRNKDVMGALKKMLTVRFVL
In short: as §1

O2T33 = test system: T4, O2T33
T4 sequence (whole entry): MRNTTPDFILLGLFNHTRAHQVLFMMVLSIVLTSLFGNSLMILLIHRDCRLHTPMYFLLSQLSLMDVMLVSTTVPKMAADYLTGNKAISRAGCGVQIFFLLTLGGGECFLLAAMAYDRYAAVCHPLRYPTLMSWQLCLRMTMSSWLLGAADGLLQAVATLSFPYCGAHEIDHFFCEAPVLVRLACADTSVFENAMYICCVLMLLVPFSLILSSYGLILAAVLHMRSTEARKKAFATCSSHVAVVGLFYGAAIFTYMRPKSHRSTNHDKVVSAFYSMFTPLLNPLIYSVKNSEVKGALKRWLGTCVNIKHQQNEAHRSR
In short: as §1

O2T34 = test system: T5, O2T34
T5 sequence (whole entry): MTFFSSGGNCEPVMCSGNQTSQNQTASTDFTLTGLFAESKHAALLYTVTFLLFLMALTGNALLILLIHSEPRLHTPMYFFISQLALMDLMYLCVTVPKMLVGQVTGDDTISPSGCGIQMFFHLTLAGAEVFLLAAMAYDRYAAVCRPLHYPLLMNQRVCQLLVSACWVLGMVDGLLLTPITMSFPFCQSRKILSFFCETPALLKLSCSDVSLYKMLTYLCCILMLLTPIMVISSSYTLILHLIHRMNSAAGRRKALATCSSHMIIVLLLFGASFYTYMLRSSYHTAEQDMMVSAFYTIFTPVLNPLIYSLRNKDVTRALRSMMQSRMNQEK
In short: as §1

O2T35 = test system: T6, O2T35
T6 sequence (whole entry): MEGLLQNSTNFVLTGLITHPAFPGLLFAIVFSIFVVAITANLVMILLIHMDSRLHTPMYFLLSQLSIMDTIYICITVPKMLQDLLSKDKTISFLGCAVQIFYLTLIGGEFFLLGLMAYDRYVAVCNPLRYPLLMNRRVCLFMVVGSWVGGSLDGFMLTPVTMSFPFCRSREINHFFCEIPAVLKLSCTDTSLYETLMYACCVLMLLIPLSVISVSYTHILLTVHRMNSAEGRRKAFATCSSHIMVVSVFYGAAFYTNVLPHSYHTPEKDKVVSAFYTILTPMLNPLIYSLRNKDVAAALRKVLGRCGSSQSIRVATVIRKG
In short: as §1

O4A15 = test system: O4A15
In short: as §1

O4A47 = test system: T7, O4A47
T7 sequence (whole entry): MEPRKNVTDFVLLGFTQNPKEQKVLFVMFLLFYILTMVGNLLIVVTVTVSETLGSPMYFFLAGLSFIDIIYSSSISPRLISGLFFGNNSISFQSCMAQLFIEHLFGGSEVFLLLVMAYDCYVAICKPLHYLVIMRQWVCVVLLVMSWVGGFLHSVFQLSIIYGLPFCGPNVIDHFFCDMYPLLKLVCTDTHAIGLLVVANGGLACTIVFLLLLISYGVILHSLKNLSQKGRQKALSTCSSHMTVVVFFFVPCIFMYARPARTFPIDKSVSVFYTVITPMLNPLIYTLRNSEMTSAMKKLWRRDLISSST
In short: as §1

O4C46 = test system: O4C46
In short: as §1

O4F17 [3] = test system: T8, O4F17
T8 sequence (whole entry): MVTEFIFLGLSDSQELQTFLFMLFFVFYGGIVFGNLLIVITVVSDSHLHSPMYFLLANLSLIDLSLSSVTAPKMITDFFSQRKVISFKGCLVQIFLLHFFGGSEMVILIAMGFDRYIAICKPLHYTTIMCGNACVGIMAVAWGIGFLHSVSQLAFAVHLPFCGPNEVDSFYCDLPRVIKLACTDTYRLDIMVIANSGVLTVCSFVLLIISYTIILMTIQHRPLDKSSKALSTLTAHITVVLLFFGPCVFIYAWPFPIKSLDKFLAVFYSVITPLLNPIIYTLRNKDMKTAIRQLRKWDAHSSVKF
In short: as §1

O4F17 [4] = test system: T9, O4F17; remark: listed apart in the source
T9 sequence (whole entry): T8 sequence (whole entry) with E15G, Q293R
In short: as §1

O4F21 = test system: T10, O4F21
T10 sequence (whole entry): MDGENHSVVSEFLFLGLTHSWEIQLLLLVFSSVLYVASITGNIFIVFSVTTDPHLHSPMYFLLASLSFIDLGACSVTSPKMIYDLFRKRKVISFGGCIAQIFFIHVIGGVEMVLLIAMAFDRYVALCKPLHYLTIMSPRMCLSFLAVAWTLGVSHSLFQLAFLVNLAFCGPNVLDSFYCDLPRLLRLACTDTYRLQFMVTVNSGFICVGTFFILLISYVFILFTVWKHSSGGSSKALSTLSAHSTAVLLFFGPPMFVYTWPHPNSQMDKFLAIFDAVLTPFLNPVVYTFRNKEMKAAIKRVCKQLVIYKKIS
In short: as §1

O51A4 = test system: T11, O51A4
T11 sequence (whole entry): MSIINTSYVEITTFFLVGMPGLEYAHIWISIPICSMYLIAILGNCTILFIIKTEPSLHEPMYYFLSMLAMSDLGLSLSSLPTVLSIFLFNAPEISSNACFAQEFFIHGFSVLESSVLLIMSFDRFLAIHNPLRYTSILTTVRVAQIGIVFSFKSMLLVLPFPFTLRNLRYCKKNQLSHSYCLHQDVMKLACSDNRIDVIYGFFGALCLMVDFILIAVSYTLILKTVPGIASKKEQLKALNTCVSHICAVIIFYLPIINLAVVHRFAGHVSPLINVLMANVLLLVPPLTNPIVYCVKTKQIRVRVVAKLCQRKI
In short: as §1

O51B4 = test system: T12, O51B4
T12 sequence (whole entry): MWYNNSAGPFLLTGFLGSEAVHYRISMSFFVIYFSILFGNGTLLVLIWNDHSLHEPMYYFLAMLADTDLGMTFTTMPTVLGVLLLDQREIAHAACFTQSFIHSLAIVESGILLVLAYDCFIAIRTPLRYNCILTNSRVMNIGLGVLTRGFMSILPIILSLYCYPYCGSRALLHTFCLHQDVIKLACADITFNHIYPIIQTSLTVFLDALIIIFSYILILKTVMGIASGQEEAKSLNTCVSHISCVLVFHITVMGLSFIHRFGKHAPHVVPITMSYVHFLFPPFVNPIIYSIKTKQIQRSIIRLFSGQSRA
In short: as §1

O51B5 = test system: T13, O51B5
T13 sequence (whole entry): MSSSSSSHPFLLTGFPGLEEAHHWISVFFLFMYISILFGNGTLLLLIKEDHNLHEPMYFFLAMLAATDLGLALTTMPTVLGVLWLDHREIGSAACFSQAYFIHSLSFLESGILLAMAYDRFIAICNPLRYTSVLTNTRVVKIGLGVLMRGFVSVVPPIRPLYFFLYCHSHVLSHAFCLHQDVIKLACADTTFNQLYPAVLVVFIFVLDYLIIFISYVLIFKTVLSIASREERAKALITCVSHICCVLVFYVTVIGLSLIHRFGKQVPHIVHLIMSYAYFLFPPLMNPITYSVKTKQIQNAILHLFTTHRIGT
In short: as §1

O51B6 = test system: T14, O51B6
T14 sequence (whole entry): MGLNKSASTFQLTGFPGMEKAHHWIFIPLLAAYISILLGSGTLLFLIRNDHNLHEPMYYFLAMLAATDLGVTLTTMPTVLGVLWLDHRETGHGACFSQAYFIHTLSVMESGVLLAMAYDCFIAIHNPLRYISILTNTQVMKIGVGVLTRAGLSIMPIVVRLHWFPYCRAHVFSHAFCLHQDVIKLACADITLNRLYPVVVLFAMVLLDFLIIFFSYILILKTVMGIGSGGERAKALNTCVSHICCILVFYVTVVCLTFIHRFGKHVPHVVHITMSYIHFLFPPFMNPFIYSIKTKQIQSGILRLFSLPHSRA
In short: as §1

O51E1 = test system: T15, O51E1
T15 sequence (whole entry): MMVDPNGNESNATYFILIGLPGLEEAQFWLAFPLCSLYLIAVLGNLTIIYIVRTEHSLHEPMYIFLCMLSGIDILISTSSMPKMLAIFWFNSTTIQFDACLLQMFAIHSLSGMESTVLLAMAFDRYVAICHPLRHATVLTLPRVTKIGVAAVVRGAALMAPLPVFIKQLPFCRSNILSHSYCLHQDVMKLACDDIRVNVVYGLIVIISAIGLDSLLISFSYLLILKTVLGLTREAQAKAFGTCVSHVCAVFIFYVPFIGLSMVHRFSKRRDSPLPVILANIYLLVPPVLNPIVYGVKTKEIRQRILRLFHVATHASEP
In short: as §1

O51F1 = test system: T16, O51F1
T16 sequence (whole entry): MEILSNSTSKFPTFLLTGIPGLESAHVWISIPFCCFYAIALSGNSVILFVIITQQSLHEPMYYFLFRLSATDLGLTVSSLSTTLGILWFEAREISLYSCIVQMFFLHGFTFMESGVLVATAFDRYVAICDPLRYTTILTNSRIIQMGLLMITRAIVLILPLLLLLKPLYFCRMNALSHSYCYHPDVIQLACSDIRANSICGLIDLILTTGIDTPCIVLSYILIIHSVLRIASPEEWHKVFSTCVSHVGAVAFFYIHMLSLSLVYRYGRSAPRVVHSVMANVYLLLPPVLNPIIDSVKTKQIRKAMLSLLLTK
In short: as §1

O51F2 = test system: T17, O51F2
T17 sequence (whole entry): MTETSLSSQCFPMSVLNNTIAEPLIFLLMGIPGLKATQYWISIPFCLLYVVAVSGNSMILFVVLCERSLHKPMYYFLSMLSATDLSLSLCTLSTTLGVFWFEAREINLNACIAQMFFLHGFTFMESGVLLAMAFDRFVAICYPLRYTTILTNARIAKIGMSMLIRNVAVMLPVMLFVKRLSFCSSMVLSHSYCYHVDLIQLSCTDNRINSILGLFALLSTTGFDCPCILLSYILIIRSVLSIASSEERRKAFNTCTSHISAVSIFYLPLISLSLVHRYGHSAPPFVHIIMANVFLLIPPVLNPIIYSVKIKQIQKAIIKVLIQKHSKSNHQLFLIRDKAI
In short: as §1

Measured: odorant receptor agonist call

CCCCCC(=O)O
active: O51B4
inactive: all other assays above

O=CCc1ccccc1
active: O2T35 | O4A47 | O4F17 [4] | O4F21 | O51B6
inactive: all other assays above

CC=Cc1ccc(O)c(OC)c1
active: O2T33 | O4A47 | O4F21 | O51B4 | O51B5 | O51E1
inactive: all other assays above

CC(C)C(=O)O
inactive: all assays above

O=C1CCCCCCCCCCCC(=O)OCCO1
active: O2T33 | O2T35 | O4F17 [4] | O51B6
inactive: all other assays above

c1ccc(Oc2ccccc2)cc1
inactive: all assays above

CCC1(O)C2(C)CCC(C2)C1(C)C (stereo not drawn)
inactive: all assays above

CC1=CCC(C(C)(C)O)CC1 (stereo not drawn)
active: O51B6
inactive: all other assays above

CCCCCCCCCCC=O
active: O2T35 | O51B6
inactive: all other assays above

CCCCCCCC=CC=O
active: O2T29 [2] | O2T34 | O4F17 [4] | O51B6 | O51E1
inactive: all other assays above

CC12CCC(CC1)C(C)(C)O2
active: O51B4
inactive: all other assays above

C=CCSCC=C
active: O51E1
inactive: all other assays above

Random excerpt: two records from the list, in no set order.
CC12CCC(CC1)C(C)(C)O2
active: O51B4
inactive: all other assays above

CCCCCC(=O)O
active: O51B4
inactive: all other assays above
